# Where a name gives a salt, the structure may show the parent alone. Read-outs that look alike come from different tables or passages of the source. The whole screen tested about 3,300 compounds, of which about 95 (3%) showed an effect of 50% or more. This is one part of the list.
# Tested on: HCoV-229E
# Parameters: species or system Huh-7; HTS, protection from HCoV-229E induced cell death, luminescent cell viability (CellCounting-Lite 2.0), inhibition rate
# Conditions: 24 h post infection, 1 h compound pre-incubation, 10 µM, inhibitor
Structure (SMILES),229E Inhibition rate,"229E Inhibition rate (229E Inhibition rate, 24 h)"
COc1ccc(-c2oc3c(CC=C(C)C)c(O)cc(O)c3c(=O)c2O[C@@H]2O[C@@H](C)[C@H](O)[C@@H](O)[C@H]2O[C@@H]2O[C@H](CO)[C@@H](O)[C@H](O)[C@H]2O)cc1 [Sagittatoside A],16.7%,
COc1cc2c(cc1O)-c1cc3ccc(OC)c(OC)c3c[n+]1CC2 [Columbamine],12.8%,
CC1=C[C@]2(O)O[C@@]3(CC2=C(C)C)[C@@H](C)CC[C@@H]13 [Curcumenol],64.3%,
CCCCCCCCCCCCO [1-Dodecanol],28.5%,
CC1=C(CC[C@H](C)CO[C@@H]2O[C@H](CO)[C@@H](O)[C@H](O)[C@H]2O)O[C@H]2C[C@H]3[C@@H]4CC[C@@H]5C[C@@H](O[C@@H]6O[C@H](CO)[C@H](O)[C@H](O)[C@H]6O[C@@H]6O[C@H](CO)[C@@H](O)[C@H](O)[C@H]6O)CC[C@]5(C)[C@H]4CC[C@]3(C)[C@@H]12 [Timosaponin B III],11.6%,
O=c1c2cc(O)c(O)cc2oc2cc(O)c([C@@H]3O[C@H](CO)[C@@H](O)[C@H](O)[C@H]3O)c(O)c12 [Mangiferin],33.2%,
CC(C)=CCc1c(O[C@@H]2O[C@H](CO)[C@@H](O)[C@H](O)[C@H]2O)cc(O)c2c(=O)c(O[C@@H]3O[C@@H](C)[C@H](O)[C@@H](O)[C@H]3O)c(-c3ccc(O)cc3)oc12 [Epimedoside A],15.1%,
COc1cc(/C=C/C(=O)O)cc(O)c1O [5-Hydroxyferulic acid],7.5%,
C=C1C[C@]23C[C@@]1(O)CC[C@H]2[C@@]12C=C[C@H](O)[C@@](C)(C(=O)O1)[C@H]2[C@@H]3C(=O)O [Gibberellic acid],17.7%,
"CC1(C)C=CC(=O)C1 [4,4-Dimethyl-2-cyclopenten-1-one]",4.8%,
CN1[C@@H](CC(=O)c2ccccc2)CCC[C@H]1C[C@H](O)c1ccccc1 [Lobeline (hydrochloride)],10.6%,
O[C@H]1[C@H](O)[C@H](O)[C@@H](O)[C@H](O)[C@H]1O [D-chiro-Inositol],13.8%,
COc1cc2oc(-c3ccc(O)cc3)cc(=O)c2c(O)c1[C@@H]1O[C@H](CO)[C@@H](O)[C@H](O)[C@H]1O[C@@H]1O[C@H](CO)[C@@H](O)[C@H](O)[C@H]1O [Spinosin],16.9%,
NCCc1c[nH]cn1 [Histamine (dihydrochloride)],,36.5%
C[N+]1(C)CCC[C@H]1C(=O)[O-] [Stachydrine],,13.8%
Nc1[nH]cnc2ncnc1-2 [Adenine monohydrochloride hemihydrate],,9.2%
C[C@@H]1CC[C@@H]2O[C@@]23C(=O)C(=O)[C@@H]2[C@@H](C2(C)C)[C@@]13C [Kanshone C],23.6%,
COC1=C2C[C@@H](C)C[C@H](OC)[C@H](O)[C@@H](C)/C=C(\C)[C@H](OC(N)=O)[C@@H](OC)/C=C\C=C(/C)C(=O)NC(=CC1=O)C2=O [Geldanamycin],19.9%,
CC(=O)c1c(O)c(C)c(O)c2c1OC1=CC(=O)C(C(C)=O)C(=O)C12C (stereo not drawn) [Usnic acid],13.1%,
C[C@H]1CC[C@@]2(OC1)O[C@H]1C[C@H]3[C@@H]4CC[C@@H]5C[C@@H](O[C@@H]6O[C@H](CO)[C@H](O)[C@H](O)[C@H]6O)CC[C@]5(C)[C@H]4CC[C@]3(C)[C@H]1[C@@H]2C [Timosaponin A1],0%,

Structure (SMILES),229E Inhibition rate,"229E Inhibition rate (229E Inhibition rate, 24 h)"
Nc1nc(N)c(O[C@@H]2O[C@H](CO)[C@@H](O)[C@H](O)[C@H]2O)c(=O)[nH]1 [Vicine],9%,
C[C@]12CC[C@@H]3c4ccc(O)cc4CC[C@H]3[C@@H]1CCC2=O [Estrone],34.3%,
O=C1C=CCO1 [2(5H)-Furanone],8.7%,
OC1CCN2Cc3ccccc3N=C12 (racemic) [(±)-Vasicine],9.2%,
COC(=O)C1CCCCC1 [Methyl cyclohexanecarboxylate],16.8%,
O=C1c2ccccc2C(=O)c2c(O)cccc21 [1-Hydroxyanthraquinone],21.2%,
CN(C)[C@@H]1C(O)=C(C(N)=O)C(=O)[C@@]2(O)C(O)=C3C(=O)c4c(O)ccc(Cl)c4[C@@](C)(O)[C@H]3C[C@@H]12 [Chlortetracycline (hydrochloride)],15.2%,
COC(=O)Cc1ccc(C(C)(C)C)cc1 [Methyl p-tert-butylphenylacetate],0%,
N[C@@H](CCC(=O)O)C(=O)O [L-Glutamic acid (monosodium salt)],,12%
COc1cc(O)cc(O)c1C(=O)/C=C/c1ccc(O)cc1 [Helichrysetin],44.2%,
CC(C)=CCC/C(C)=C/COc1c2occc2cc2ccc(=O)oc12 [8-Geranyloxypsoralen],39.1%,
COc1cc(CCC(C)=O)ccc1O [Zingerone],15.2%,
CCCC[C@@H]1OC(=O)C2=C1CCC=C2 [Senkyunolide A],19.4%,
COc1ccccc1O [Guaiacol],13.6%,
O=C(O)CCCC(O)C(=O)O (stereo not drawn) [2-Hydroxyadipic acid],14.9%,
O=C(/C=C/c1ccc(O[C@@H]2O[C@H](CO)[C@@H](O)[C@H](O)[C@H]2O)cc1)c1ccc(O)cc1O [Isoliquiritin],27.7%,
CCOC(=O)C1=C[C@]2(CC)CCCN3CCc4c(n1c1ccccc41)[C@@H]32 [Vinpocetine],50%,
O=C(O)[C@@H]1CCCN1 [L-Proline],14.9%,
Cn1c(=O)ccn([C@@H]2O[C@H](CO)[C@@H](O)[C@H]2O)c1=O [3-Methyluridine],46.6%,
O=C(O)C1CSSC1 [Asparagusic acid],15.6%,

Structure (SMILES),229E Inhibition rate,"229E Inhibition rate (229E Inhibition rate, 24 h)"
CC1(C)CC[C@]2(C(=O)O)CC[C@]3(C)C(=CC[C@@H]4[C@@]5(C)C[C@H](O)[C@H](O)[C@@](C)(CO)[C@@H]5CC[C@]43C)[C@@H]2C1 [Bayogenin],12.7%,
C=C1[C@H]2CC[C@@H]3[C@H]2C(C)(C)CCC[C@]13C [(+)-Longifolene],0%,
O=C(O)C[C@@H]1C(=O)O[C@H]2[C@H](OC(=O)c3cc(O)c(O)c(O)c3)[C@@H](OC(=O)c3cc(O)c(O)c4c3[C@H]1[C@@H](O)C(=O)O4)[C@H](OC(=O)c1cc(O)c(O)c(O)c1)O[C@@H]2COC(=O)c1cc(O)c(O)c(O)c1 [Chebulinic acid],6.2%,
CN[C@H]1C[C@@H](N)[C@H](O)[C@@H](O[C@@H]2O[C@H](CO)[C@H](O)[C@@H]3OC4(O[C@H]23)O[C@H]([C@@H](N)CO)[C@H](O)[C@H](O)[C@H]4O)[C@@H]1O (stereo partly drawn) [Hygromycin B],47.6%,
Nc1nc(=O)c2c([nH]1)NC[C@@H](CNc1ccc(C(=O)N[C@@H](CCC(=O)O)C(=O)O)cc1)N2C=O [Folinic acid],23%,
C[N+](C)(C)[O-] [Trimethylamine N-oxide (dihydrate)],,14.1%
CCCCCCCCCCCCCCCCCCCO [1-Nonadecanol],26.2%,
CC(C)(c1ccc(O)cc1)c1ccc(O)cc1 [Bisphenol A],30.1%,
O=C(O)CC(O)(CC(=O)OCc1ccc(O[C@@H]2O[C@H](CO)[C@@H](O)[C@H](O)[C@H]2O)cc1)C(=O)O (stereo partly drawn) [Parishin E],5.9%,
C[C@H](CC[C@@H](O[C@@H]1O[C@H](CO[C@@H]2O[C@H](CO)[C@@H](O)[C@H](O)[C@H]2O)[C@@H](O)[C@H](O)[C@H]1O)C(C)(C)O)[C@H]1CC[C@@]2(C)[C@@H]3CC=C4[C@@H](CC[C@H](O[C@@H]5O[C@H](CO)[C@@H](O)[C@H](O)[C@H]5O)C4(C)C)[C@]3(C)[C@H](O)C[C@]12C [Mogroside III],27.4%,
COc1ccc2[nH]cc(CCO)c2c1 [5-Methoxytryptophol],10%,
CC/C=C\C/C=C\C/C=C\C/C=C\C/C=C\CCCCCC(=O)O [Docosapentaenoic acid (22n-3)],11.1%,
COc1ccc(-c2coc3cc(O[C@@H]4O[C@H](CO[C@@H]5OC[C@@H](O)[C@H](O)[C@H]5O)[C@@H](O)[C@H](O)[C@H]4O)c(OC)c(O)c3c2=O)cc1 [Kakkalide],6.1%,
C[C@H](CC[C@@H](O)C(C)(C)O)[C@H]1CC[C@@]2(C)[C@@H]3CC=C4[C@@H](CC[C@H](O[C@@H]5O[C@H](CO)[C@@H](O)[C@H](O)[C@H]5O)C4(C)C)[C@]3(C)[C@H](O)C[C@]12C [Mogroside I E1],8.2%,
C[C@]12CC[C@@H]3c4ccc(OS(=O)(=O)O)cc4CC[C@H]3[C@@H]1CCC2=O [Estrone sulfate (sodium)],,33%
C[C@@]12C[C@@]3(O)O[C@@H](O1)[C@]1(COC(=O)c4ccccc4)[C@H]3C[C@@]12O[C@@H]1O[C@H](CO)[C@@H](O)[C@H](O)[C@H]1O [Paeoniflorin],6.8%,
Cc1coc2c1C(=O)C(=O)c1c-2ccc2c(C)cccc12 [Tanshinone I],10.2%,
COc1cc(/C=C/c2ccccc2)oc(=O)c1 [Desmethoxyyangonin],12%,
CCCCCC/C=C/CCCCCCCCCC(=O)O [trans-Vaccenic acid],36.5%,
Sc1nc2ccccc2s1 [2-Mercaptobenzothiazole],0%,

# Pulled by compound from above:
Structure (SMILES),229E Inhibition rate,"229E Inhibition rate (229E Inhibition rate, 24 h)"
OC1CCN2Cc3ccccc3N=C12 (racemic) [(±)-Vasicine],9.2%,
COc1ccccc1O [Guaiacol],13.6%,
CC(C)(c1ccc(O)cc1)c1ccc(O)cc1 [Bisphenol A],30.1%,
CN[C@H]1C[C@@H](N)[C@H](O)[C@@H](O[C@@H]2O[C@H](CO)[C@H](O)[C@@H]3OC4(O[C@H]23)O[C@H]([C@@H](N)CO)[C@H](O)[C@H](O)[C@H]4O)[C@@H]1O (stereo partly drawn) [Hygromycin B],47.6%,

# Reference: article PMC12431657, “Discovery and mechanistic insights of dibenzoylmethane as a broad spectrum inhibitor of coronavirus” (PLOS Pathogens, 2025)
